The structures given here were assigned with low confidence; some may be wrong.

These results are taken from patent US20240327382A1 (ALMAC DISCOVERY LIMITED, priority 2021, published 2024).

Data set [1] is described as follows: Kinetic solubility (KSol). The data set is classed as physicochemical.
The nature of data set [2]: Predicted hepatic clearance using mouse liver microsome data. The data set is classed as in vitro ADME.

With `O=C(N1CC/C(=C/n2cnc(-c3ccccc3)cc2=O)C2(CCCC2)C1)N1CCNC[C@H]1c1ccccc1`, in data set [1], the KSol was 3 µM. In addition, the “HLM CLhep” value in data set [2] is reported as 3 mL/min/kg.
